Reference: PubChem BioAssay AID1259308 (NCATS, 2017)

Assay: 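Candidate targets for better recombinant protein yield in mammalian cells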 (primary screen)
System: human HEK293 embryonic kidney cells stably expressing firefly luciferase (HEK-CMV-Luc2-Hygro)
Reagent: single siRNA against human genes, 0.8 pmol siRNA per well
Duration: 72 h
Measurement: 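Luciferase light (ONE-Glo) measured on one replicate plate set and viability (CellTiter-Glo) on the other, scaled to a negative control siRNA, with robust z-scores and luciferase per cell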
Scale: total luciferase, z-score: higher = more reporter protein produced
Hit rule: 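An siRNA counts as active if its total luciferase robust z-score exceeds 3; genes with two or more such siRNAs out of three were retested with fresh siRNAs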
Calls: active = raised luciferase; inactive = no rise
This is an unselected part of about 59,000 deposited reagents. About 1,510 of all reagents (2.6%) count as active. 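Calls use total luciferase alone and ignore viability, so some active siRNAs may act by altering cell number.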 The numbers tell different reagents against one gene apart. Further read-outs or replicates are left out here.

IFI44 (GeneID 10561) #1 — total luciferase, z-score: 1.42; outcome: inactive
IFI44 (GeneID 10561) #2 — total luciferase, z-score: -0.0344; outcome: inactive
IFI44 (GeneID 10561) #3 — total luciferase, z-score: 0.0294; outcome: inactive
ACTRT1 (GeneID 139741) #1 — total luciferase, z-score: 0.569; outcome: inactive
ACTRT1 (GeneID 139741) #2 — total luciferase, z-score: 3.3; outcome: active
ACTRT1 (GeneID 139741) #3 — total luciferase, z-score: -0.323; outcome: inactive

Single entries from above.
Under “total luciferase, z-score”, ACTRT1 (GeneID 139741) #3 reads -0.323
For “total luciferase, z-score”, IFI44 (GeneID 10561) #2 has -0.0344

More results:
CEBPG (GeneID 1054) #1 — total luciferase, z-score: -2.07; outcome: inactive
CEBPG (GeneID 1054) #2 — total luciferase, z-score: -0.297; outcome: inactive
CEBPG (GeneID 1054) #3 — total luciferase, z-score: -2.28; outcome: inactive
SERINC4 (GeneID 619189) #1 — total luciferase, z-score: -0.748; outcome: inactive
SERINC4 (GeneID 619189) #2 — total luciferase, z-score: -0.209; outcome: inactive
SERINC4 (GeneID 619189) #3 — total luciferase, z-score: -1.23; outcome: inactive
